Measured values reported in the supplement of paper PMC11732987, “Enantioselective OTUD7B fragment discovery through chemoproteomics screening and high-throughput optimisation” (Communications Chemistry, 2025).
Some of the results follow. The data scatter; read single values as rough.

By UniProt entry, the sequences of proteins in these tests, tags left out. Where a name states a change or a piece, a line headed by the entry shows the natural chain unless it says otherwise. Residues count along the entry.
UniProt P46199: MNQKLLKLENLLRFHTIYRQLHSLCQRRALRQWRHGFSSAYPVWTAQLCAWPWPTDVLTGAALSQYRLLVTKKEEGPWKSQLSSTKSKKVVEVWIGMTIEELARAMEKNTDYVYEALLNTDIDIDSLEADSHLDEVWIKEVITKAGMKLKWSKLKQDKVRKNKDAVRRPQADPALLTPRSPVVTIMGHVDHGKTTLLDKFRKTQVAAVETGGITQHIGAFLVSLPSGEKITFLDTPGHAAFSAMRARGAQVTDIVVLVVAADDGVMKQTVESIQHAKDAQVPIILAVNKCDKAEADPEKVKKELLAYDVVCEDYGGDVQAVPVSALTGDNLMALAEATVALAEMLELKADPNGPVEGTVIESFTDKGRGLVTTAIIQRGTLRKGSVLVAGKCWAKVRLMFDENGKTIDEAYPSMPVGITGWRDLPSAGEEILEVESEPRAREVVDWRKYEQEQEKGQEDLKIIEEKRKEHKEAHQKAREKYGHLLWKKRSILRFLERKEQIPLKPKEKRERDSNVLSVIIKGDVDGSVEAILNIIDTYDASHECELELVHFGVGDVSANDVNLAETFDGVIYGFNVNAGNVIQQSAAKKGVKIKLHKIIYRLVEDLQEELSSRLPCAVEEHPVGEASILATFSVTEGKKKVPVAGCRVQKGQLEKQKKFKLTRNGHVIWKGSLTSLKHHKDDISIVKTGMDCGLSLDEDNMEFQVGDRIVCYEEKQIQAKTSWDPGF
UniProt Q9ULH7, 620-640: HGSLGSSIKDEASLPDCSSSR
UniProt P42285: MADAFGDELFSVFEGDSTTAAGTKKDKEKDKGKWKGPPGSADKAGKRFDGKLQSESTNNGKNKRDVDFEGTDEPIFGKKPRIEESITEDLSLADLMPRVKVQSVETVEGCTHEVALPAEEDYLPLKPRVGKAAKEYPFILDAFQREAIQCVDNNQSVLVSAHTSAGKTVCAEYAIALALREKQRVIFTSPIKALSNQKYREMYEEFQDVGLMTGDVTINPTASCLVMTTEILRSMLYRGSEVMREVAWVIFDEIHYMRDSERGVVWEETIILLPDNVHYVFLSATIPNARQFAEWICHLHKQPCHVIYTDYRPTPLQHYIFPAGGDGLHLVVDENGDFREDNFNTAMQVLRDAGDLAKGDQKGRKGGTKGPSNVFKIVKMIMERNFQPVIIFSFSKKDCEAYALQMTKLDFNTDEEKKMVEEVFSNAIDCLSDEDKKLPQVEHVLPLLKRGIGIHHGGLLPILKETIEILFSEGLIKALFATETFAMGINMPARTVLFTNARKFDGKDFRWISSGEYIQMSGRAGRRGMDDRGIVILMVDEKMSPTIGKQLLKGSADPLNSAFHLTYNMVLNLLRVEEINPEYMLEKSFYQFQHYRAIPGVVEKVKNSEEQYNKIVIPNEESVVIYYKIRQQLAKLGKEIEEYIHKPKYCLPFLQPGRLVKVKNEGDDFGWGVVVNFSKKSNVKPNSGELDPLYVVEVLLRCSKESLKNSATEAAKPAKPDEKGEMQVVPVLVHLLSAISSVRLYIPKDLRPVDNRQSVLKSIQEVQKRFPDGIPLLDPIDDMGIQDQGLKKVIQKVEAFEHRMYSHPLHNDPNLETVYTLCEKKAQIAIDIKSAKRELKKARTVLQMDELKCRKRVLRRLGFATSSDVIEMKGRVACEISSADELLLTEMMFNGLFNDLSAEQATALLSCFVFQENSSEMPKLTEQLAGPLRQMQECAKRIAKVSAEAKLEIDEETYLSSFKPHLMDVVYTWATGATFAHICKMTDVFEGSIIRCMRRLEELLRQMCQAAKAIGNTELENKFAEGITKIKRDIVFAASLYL
UniProt Q13615: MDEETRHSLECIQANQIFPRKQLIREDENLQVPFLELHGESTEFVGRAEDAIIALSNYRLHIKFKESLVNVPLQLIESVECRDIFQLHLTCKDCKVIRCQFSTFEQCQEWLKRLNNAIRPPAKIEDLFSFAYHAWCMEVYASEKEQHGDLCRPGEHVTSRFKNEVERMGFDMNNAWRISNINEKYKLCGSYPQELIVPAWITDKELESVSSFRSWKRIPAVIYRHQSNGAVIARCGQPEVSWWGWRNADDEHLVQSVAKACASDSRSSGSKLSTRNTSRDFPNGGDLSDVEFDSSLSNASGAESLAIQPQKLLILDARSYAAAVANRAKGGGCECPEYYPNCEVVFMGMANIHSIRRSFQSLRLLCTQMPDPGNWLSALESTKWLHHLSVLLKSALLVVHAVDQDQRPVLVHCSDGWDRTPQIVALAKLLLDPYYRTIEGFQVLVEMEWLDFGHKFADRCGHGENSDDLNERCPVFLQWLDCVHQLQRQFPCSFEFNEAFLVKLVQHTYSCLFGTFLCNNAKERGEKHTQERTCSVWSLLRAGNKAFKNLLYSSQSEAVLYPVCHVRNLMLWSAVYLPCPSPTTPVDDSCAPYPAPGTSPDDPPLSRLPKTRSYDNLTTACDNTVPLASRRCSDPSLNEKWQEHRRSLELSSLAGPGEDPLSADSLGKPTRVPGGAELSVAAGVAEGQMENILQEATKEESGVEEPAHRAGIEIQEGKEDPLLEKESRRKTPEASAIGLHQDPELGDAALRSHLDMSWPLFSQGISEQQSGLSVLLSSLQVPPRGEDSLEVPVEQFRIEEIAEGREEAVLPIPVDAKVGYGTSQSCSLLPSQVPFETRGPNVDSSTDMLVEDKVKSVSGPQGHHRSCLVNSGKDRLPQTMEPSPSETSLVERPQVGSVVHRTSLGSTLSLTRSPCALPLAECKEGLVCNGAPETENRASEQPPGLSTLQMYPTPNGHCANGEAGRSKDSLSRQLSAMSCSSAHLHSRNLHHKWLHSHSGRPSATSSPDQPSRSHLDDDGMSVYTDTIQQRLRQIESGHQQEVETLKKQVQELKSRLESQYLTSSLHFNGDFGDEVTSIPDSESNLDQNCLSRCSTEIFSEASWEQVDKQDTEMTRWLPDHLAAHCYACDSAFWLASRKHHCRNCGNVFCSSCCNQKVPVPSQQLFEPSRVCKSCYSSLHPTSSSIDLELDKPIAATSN
UniProt O43795: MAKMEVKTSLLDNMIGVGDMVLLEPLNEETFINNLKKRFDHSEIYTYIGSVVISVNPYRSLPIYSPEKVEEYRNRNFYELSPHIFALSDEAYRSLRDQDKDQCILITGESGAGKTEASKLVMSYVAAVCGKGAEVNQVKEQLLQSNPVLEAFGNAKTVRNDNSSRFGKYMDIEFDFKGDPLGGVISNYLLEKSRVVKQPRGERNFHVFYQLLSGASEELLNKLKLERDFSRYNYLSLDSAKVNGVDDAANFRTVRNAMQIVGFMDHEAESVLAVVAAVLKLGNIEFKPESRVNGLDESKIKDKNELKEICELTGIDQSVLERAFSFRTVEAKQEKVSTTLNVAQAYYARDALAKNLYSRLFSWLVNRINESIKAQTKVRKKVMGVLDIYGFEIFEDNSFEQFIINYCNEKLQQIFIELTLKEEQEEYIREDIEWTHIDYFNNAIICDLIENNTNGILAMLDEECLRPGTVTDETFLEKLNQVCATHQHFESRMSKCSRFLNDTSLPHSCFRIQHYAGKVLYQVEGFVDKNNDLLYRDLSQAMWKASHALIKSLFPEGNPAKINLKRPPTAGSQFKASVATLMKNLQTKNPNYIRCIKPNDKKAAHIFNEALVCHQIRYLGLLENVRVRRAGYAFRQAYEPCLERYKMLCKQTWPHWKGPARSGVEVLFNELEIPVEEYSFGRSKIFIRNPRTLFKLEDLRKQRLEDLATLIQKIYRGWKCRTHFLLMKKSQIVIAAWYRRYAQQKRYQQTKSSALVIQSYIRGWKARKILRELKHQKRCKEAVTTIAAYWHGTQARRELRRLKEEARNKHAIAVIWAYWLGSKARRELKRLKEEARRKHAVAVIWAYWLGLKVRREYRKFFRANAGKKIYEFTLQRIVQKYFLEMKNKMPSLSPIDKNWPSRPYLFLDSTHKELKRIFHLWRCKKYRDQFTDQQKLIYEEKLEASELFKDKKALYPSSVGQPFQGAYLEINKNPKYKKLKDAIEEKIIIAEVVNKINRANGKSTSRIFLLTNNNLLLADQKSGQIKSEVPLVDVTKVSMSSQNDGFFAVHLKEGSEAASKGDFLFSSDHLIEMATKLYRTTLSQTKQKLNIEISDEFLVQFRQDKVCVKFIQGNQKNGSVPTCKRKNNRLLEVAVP
UniProt Q9BT17: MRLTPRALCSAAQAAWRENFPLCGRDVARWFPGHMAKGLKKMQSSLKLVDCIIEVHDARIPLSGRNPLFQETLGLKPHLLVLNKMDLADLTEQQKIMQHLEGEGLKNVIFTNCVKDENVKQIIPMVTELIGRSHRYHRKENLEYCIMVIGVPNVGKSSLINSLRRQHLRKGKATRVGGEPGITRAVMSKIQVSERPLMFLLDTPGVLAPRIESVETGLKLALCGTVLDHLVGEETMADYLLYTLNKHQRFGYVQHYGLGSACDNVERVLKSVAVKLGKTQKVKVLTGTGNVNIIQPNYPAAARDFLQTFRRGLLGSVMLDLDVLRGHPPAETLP
UniProt Q9ULD2: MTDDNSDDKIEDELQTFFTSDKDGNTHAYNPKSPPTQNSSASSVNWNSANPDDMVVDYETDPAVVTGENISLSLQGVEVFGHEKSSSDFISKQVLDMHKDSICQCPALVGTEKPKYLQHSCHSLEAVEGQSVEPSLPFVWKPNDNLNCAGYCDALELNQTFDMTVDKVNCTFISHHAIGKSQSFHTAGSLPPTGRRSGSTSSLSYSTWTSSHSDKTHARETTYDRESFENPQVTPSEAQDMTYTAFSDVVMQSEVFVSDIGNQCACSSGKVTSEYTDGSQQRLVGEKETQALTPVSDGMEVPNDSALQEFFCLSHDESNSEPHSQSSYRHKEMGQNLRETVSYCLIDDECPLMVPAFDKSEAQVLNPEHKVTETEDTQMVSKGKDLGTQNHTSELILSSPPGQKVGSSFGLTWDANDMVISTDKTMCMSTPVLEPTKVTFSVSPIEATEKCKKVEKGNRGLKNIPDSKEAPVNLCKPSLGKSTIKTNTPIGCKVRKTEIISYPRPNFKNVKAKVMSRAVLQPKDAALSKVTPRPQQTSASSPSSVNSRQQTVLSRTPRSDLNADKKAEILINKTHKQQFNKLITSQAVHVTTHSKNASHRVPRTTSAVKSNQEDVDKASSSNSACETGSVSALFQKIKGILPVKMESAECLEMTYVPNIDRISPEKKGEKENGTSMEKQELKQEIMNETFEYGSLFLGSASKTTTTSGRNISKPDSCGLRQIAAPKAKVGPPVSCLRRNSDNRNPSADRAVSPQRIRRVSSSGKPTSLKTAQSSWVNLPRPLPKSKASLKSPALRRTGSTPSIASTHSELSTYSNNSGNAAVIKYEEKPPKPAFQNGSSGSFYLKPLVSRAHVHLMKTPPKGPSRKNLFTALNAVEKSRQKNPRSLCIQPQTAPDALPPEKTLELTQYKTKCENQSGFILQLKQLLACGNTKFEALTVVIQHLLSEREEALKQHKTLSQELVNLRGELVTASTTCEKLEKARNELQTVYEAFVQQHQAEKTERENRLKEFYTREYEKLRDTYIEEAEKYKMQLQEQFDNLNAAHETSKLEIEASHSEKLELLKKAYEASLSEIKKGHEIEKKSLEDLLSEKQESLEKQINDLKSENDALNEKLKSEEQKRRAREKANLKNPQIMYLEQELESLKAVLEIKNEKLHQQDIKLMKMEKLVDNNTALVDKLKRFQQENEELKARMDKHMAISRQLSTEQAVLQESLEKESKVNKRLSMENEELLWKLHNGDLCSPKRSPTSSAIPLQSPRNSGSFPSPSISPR
UniProt P53602, 2-22: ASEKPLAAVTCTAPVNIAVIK
UniProt Q7Z6M4: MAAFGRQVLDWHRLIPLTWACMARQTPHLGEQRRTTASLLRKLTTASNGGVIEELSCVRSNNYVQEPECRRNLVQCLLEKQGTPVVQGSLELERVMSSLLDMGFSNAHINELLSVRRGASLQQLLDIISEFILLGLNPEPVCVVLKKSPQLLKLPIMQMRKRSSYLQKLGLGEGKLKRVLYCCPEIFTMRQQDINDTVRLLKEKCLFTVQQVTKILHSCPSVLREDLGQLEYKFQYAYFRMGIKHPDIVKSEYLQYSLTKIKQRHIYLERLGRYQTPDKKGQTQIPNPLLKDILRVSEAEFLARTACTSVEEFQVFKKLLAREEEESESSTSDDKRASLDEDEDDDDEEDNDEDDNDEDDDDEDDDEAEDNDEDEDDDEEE
UniProt O75570: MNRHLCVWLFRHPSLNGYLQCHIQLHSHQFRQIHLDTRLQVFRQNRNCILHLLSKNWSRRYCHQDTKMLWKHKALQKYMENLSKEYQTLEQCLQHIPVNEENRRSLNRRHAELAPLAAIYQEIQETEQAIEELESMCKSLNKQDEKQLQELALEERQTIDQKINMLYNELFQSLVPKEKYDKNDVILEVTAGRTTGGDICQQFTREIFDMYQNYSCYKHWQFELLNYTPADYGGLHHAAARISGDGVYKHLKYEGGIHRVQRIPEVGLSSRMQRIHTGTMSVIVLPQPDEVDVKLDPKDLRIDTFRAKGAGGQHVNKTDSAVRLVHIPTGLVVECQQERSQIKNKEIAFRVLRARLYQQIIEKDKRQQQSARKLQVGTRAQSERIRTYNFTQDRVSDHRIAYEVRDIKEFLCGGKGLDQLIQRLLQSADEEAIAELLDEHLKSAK

Each target was assayed with ClCC(=O)N[C@@H]1CCCc2ccccc12 (assay: log2 mean competition ratio of IA-DTB cysteine labelling (DMSO/compound) (log2 ratio); higher = stronger cysteine engagement by compound). Settings: 50 µM; treatment time: 4 h; cell line lysate: HEK293T.
Procedure: (§1)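 IA-DTB competitive cysteine chemoproteomics in HEK293T RIPA lysate. Lysates were treated with compound 29 or 30 at 50 or 200 µM for 4 h, then IA-DTB (500 µM, 1 h), trypsin-digested, NeutrAvidin-enriched and analysed by diaPASEF. Competition ratio = intensity DMSO / intensity compound (n=4 treated, n=64 DMSO); binding: mean log2 CR ≥ 1 and p ≤ 0.05 plus QC filters. Target is the cysteine site.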

Target | log2 mean competition ratio
MRPS6 C105 (UniProt P82932) | -0.0796
MTIF2 C290 (UniProt P46199) | -0.203
MYBBP1A C890 (UniProt Q9BQG0) | 0.0272
MRTFB C636 (UniProt Q9ULH7) | 0.0672
MTREX C430 (UniProt P42285) | -0.281
MTOR C713 (UniProt P42345) | 0.0315
MTMR3 C928 (UniProt Q13615) | 0.013
MYO1B C310 (UniProt O43795) | -0.334
MYO19 C227 (UniProt Q96H55) | -0.293
MYO1E C586 (UniProt Q12965) | 0.187
MTG1 C113 (UniProt Q9BT17) | -0.209
MTHFD1L C61 | -0.0139
MSRB2 C45 (UniProt Q9Y3D2) | -0.294
NADSYN1 C531 (UniProt Q6IA69) | -0.196
MYCBP2 C3824 (UniProt O75592) | -0.0321
MYH14 C324 (UniProt Q7Z406) | -0.00586
MTUS1 C975 (UniProt Q9ULD2) | 0.25
MYO1B C641 (UniProt O43795) | -0.103
MYBL2 C668 (UniProt P10244) | -0.0828

Target | log2 mean competition ratio
MRPS12 C132 (UniProt O15235) | 0.188
MTG1 C23 (UniProt Q9BT17) | 0.0456
MVD C108 (UniProt P53602) | 0.00625
NAA20 C9 (UniProt P61599) | -0.195
N4BP2 C1438 (UniProt Q86UW6) | 0.354
MVD C12 (UniProt P53602) | -0.132
MTERF4 C76 (UniProt Q7Z6M4) | -0.0685
MTMR2 C7 (UniProt Q13614) | 0.0415
MTHFD1L C198 | -0.0726
NADK2 C193 (UniProt Q4G0N4) | 0.134
MRPS2 C162 (UniProt Q9Y399) | -0.024
MRPL38 C252 (UniProt Q96DV4) | -0.301
MSL1 C74 (UniProt Q68DK7) | 0.221
MYL6 C32 | 0.494
MTR C432 (UniProt Q99707) | 0.293
MTMR1 C12 (UniProt Q13613) | -0.00675
MYBBP1A_(C614,C614,C623,C623) (UniProt Q9BQG0) | 0.058
MTRF1 C335 (UniProt O75570) | -0.142
MRPS18A C108 (UniProt Q9NVS2) | 0.131

Same assay, conditions: 200 µM; treatment time: 4 h; cell line lysate: HEK293T

Target | log2 mean competition ratio
MRPS6 C105 (UniProt P82932) | -0.289
MTIF2 C290 (UniProt P46199) | 0.274
MYBBP1A C890 (UniProt Q9BQG0) | 0.00568
MRTFB C636 (UniProt Q9ULH7) | 0.0917
MTREX C430 (UniProt P42285) | -0.235
MTOR C713 (UniProt P42345) | -0.338
MTMR3 C928 (UniProt Q13615) | -0.0448
MYO1B C310 (UniProt O43795) | -0.177
MYO19 C227 (UniProt Q96H55) | 0.0829
MYO1E C586 (UniProt Q12965) | -0.29
MTG1 C113 (UniProt Q9BT17) | 0.134
MTHFD1L C61 | 0.0654
MSRB2 C45 (UniProt Q9Y3D2) | 0.151
NADSYN1 C531 (UniProt Q6IA69) | -0.234
MYCBP2 C3824 (UniProt O75592) | 0.186
MYH14 C324 (UniProt Q7Z406) | 0.0884
MTUS1 C975 (UniProt Q9ULD2) | 0.376
MYO1B C641 (UniProt O43795) | 0.367
MYBL2 C668 (UniProt P10244) | 0.219

Target | log2 mean competition ratio
MRPS12 C132 (UniProt O15235) | -0.313
MTG1 C23 (UniProt Q9BT17) | 0.0346
MVD C108 (UniProt P53602) | 0.491
NAA20 C9 (UniProt P61599) | -0.264
N4BP2 C1438 (UniProt Q86UW6) | -0.166
MVD C12 (UniProt P53602) | -0.414
MTERF4 C76 (UniProt Q7Z6M4) | 0.144
MTMR2 C7 (UniProt Q13614) | -0.239
MTHFD1L C198 | 0.153
NADK2 C193 (UniProt Q4G0N4) | -0.105
MRPS2 C162 (UniProt Q9Y399) | -0.152
MRPL38 C252 (UniProt Q96DV4) | -0.109
MSL1 C74 (UniProt Q68DK7) | 0.587
MYL6 C32 | 0.122
MTR C432 (UniProt Q99707) | -0.0736
MTMR1 C12 (UniProt Q13613) | -0.261
MYBBP1A_(C614,C614,C623,C623) (UniProt Q9BQG0) | -0.128
MTRF1 C335 (UniProt O75570) | 0.0854
MRPS18A C108 (UniProt Q9NVS2) | 0.0125

These targets were tested with ClCC(=O)N[C@H]1CCCc2ccccc12 in the same assay as above. Settings: 50 µM; treatment time: 4 h; cell line lysate: HEK293T.
Procedure: as §1

Target | log2 mean competition ratio
MRPS6 C105 (UniProt P82932) | -0.0296
MTIF2 C290 (UniProt P46199) | -0.251
MYBBP1A C890 (UniProt Q9BQG0) | -0.125
MRTFB C636 (UniProt Q9ULH7) | -0.102
MTREX C430 (UniProt P42285) | -0.331
MTOR C713 (UniProt P42345) | 0.323
MTMR3 C928 (UniProt Q13615) | 0.09
MYO1B C310 (UniProt O43795) | -0.233
MYO19 C227 (UniProt Q96H55) | 0.0678
MYO1E C586 (UniProt Q12965) | 0.213
MTG1 C113 (UniProt Q9BT17) | -0.356
MTHFD1L C61 | 0.0137
MSRB2 C45 (UniProt Q9Y3D2) | 0.142
NADSYN1 C531 (UniProt Q6IA69) | -0.104
MYCBP2 C3824 (UniProt O75592) | -0.0102
MYH14 C324 (UniProt Q7Z406) | 0.03
MTUS1 C975 (UniProt Q9ULD2) | -0.176
MYO1B C641 (UniProt O43795) | 0.324
MYBL2 C668 (UniProt P10244) | -0.0144

Target | log2 mean competition ratio
MRPS12 C132 (UniProt O15235) | 0.232
MTG1 C23 (UniProt Q9BT17) | 0.689
MVD C108 (UniProt P53602) | 0.0393
NAA20 C9 (UniProt P61599) | -0.00764
N4BP2 C1438 (UniProt Q86UW6) | 0.107
MVD C12 (UniProt P53602) | -0.227
MTERF4 C76 (UniProt Q7Z6M4) | -0.304
MTMR2 C7 (UniProt Q13614) | 0.39
MTHFD1L C198 | -0.296
NADK2 C193 (UniProt Q4G0N4) | 0.0216
MRPS2 C162 (UniProt Q9Y399) | -0.121
MRPL38 C252 (UniProt Q96DV4) | -0.131
MSL1 C74 (UniProt Q68DK7) | -0.133
MYL6 C32 | 0.279
MTR C432 (UniProt Q99707) | -0.299
MTMR1 C12 (UniProt Q13613) | 0.552
MYBBP1A_(C614,C614,C623,C623) (UniProt Q9BQG0) | -0.0284
MTRF1 C335 (UniProt O75570) | -0.374
MRPS18A C108 (UniProt Q9NVS2) | 0.0586
